Tested on: Jurkat cells
Test: Jurkat proliferation assay (CellTiter-Glo)
Assay type: cell-based
Details: Homo sapiens, 72 h, read-out: IC50 on Jurkat T-ALL cell proliferation, 72 hrs, CellTiter-Glo
Description: (§1) Jurkat cells were seeded at a density of 25,000 cells/well in 96-well plates. Cells were then treated with the indicated compounds in a 10-pt dose escalation format from 1 nM to 10 μM or DMSO control for 72 hours. After 72 hours, the cells were assayed using CellTiter-Glo Luminescent Cell Viability Assay (Promega) to determine cell viability by measuring the amount of ATP present in each sample cell population, which is an indicator of cell metabolic activity. Results were graphed as fraction of the DMSO control at 72 hours. All data points were performed in biological triplicate. Error bars are +/−SD.
as §1, with “72 hrs.” for “72 hours.”, “72 hrs,” for “72 hours, the”, “Results are” for “Results were”

IC50: < 0.01 µM
Structure (SMILES): CCc1cnn2c(NCc3ccc[n+]([O-])c3)cc(N3CCCC[C@H]3CCO)nc12 [dinaciclib, reference compound]

Source: patent US12098154B2, “Inhibitors of cyclin-dependent kinases” (Dana-Farber Cancer Institute, Inc., priority 2015, dated 2024)
